Results from PubChem BioAssay AID248 (DTP/NCI, 2004).
The list shows only some results of the screen, not a fair sample: it gathers tests that were run many times, whatever their T/C, doses with no T/C, and many T/C values between a quarter and a half above the control. Other doses and runs of a compound stand elsewhere. T/C gives the treated animals as a percentage of the vehicle group. Some entries give survivors of the animals treated and no T/C: the source files T/C as zero there, which appears to mark a toxic dose or a test without result, not a measured value. Some doses without a T/C left all or most animals alive at the check, yet need not have been tolerated: the source hardly ever lists a survival T/C far under the control, and the zero likely stands for such cases as well. Counts of survivors are from the toxicity check (mostly the fifth day) where no day follows; animals may have died later. Schedules are NCI's codes, taken here to give the interval after Q, in days (D) or hours (H), and the number of doses after X. Some schedules carry Z or #; the key to these is not given. Where survival is the endpoint, the PubChem record calls one and a half times the control and up active, and a quarter to a half above the control has no call in these data; cut-offs in other NCI protocols can differ. Some entries were tested several times; the values are given in rising order. Some T/C values carry the count of animals alive at the toxicity check (mostly the fifth day); without a count, all were alive then.

Tested on: L1210 leukemia ip in BDF1 mice, survival T/C
Test: NCI In Vivo Anticancer Drug Screen. Data for tumor model L1210 Leukemia (intraperitoneal) in B6D2F1 (BDF1) mice
Settings: higher T/C = longer survival

SMILES: O=NN(CCCl)C(=O)NC1CCCCC1
- T/C (T/C endpoint: mean survival time, dose: 33.0 mg/kg/injection, schedule: Q01DX001 (iv), vehicle: saline): 144 % of control
- T/C (T/C endpoint: mean survival time, dose: 37.5 mg/kg/injection, schedule: Q01DX001 (ip), vehicle: saline): 143 % of control
- T/C (T/C endpoint: mean survival time, dose: 40.0 mg/kg/injection, schedule: Q01DX001 (ip), vehicle: saline): 130 % of control [6 of 7 alive]
- T/C (T/C endpoint: mean survival time, dose: 40.0 mg/kg/injection, schedule: Q## X032 (ip), vehicle: carboxymethylcellulose (CMC), evaluated on day 46): 189 [9 of 10 alive] and 415 % of control
- T/C (T/C endpoint: mean survival time, dose: 40.0 mg/kg/injection, schedule: Q## X032 (ip), vehicle: carboxymethylcellulose (CMC), evaluated on day 60): 562 and 584 % of control
- T/C (T/C endpoint: mean survival time, dose: 50.0 mg/kg/injection, schedule: Q01DX001 (ip), vehicle: Klucel (hydroxypropylcellulose) (HPC), evaluated on day 30): 242 and 279 % of control
- T/C (T/C endpoint: mean survival time, dose: 50.0 mg/kg/injection, schedule: Q01DX001 (ip), vehicle: Klucel (hydroxypropylcellulose) (HPC), evaluated on day 60): 124 [9 of 10 alive] and 232 % of control
- T/C (T/C endpoint: mean survival time, dose: 50.0 mg/kg/injection, schedule: Q01DX001 (ip), vehicle: carboxymethylcellulose (CMC), evaluated on day 45): 424, 434, 448, 468, 517 % of control
- T/C (T/C endpoint: mean survival time, dose: 50.0 mg/kg/injection, schedule: Q01DX001 (ip), vehicle: carboxymethylcellulose (CMC), evaluated on day 46): 608 % of control
- T/C (T/C endpoint: mean survival time, dose: 50.0 mg/kg/injection, schedule: Q01DX001 (ip), vehicle: carboxymethylcellulose (CMC), evaluated on day 60): 486, 718, 879 % of control
- T/C (T/C endpoint: mean survival time, dose: 50.0 mg/kg/injection, schedule: Q01DX001 (ip), vehicle: carboxymethylcellulose (CMC), run until all animals had died): 236, 298, 306, 318, 320, 349, 370, 589 % of control
- survivor count (T/C endpoint: mean survival time, dose: 50.0 mg/kg/injection, schedule: Q01DX001 (ip), vehicle: clinical formulation): 3 of 6
- T/C (T/C endpoint: mean survival time, dose: 50.0 mg/kg/injection, schedule: Q01DX005 (ip), vehicle: carboxymethylcellulose (CMC)): 142 % of control
- survivor count (T/C endpoint: mean survival time, dose: 50.0 mg/kg/injection, schedule: Q03HX008 (ip), vehicle: carboxymethylcellulose (CMC)): 9 of 10
- T/C (T/C endpoint: mean survival time, dose: 50.0 mg/kg/injection, schedule: Q04DX003 (ip), vehicle: carboxymethylcellulose (CMC)): 138 % of control
- T/C (T/C endpoint: mean survival time, dose: 50.0 mg/kg/injection, schedule: Q## X001 (ip), vehicle: carboxymethylcellulose (CMC), evaluated on day 45): 567 % of control
- T/C (T/C endpoint: mean survival time, dose: 50.0 mg/kg/injection, schedule: Q## X001 (ip), vehicle: carboxymethylcellulose (CMC), evaluated on day 46): 650 and 807 % of control
- T/C (T/C endpoint: mean survival time, dose: 50.0 mg/kg/injection, schedule: Q## X001 (ip), vehicle: carboxymethylcellulose (CMC), evaluated on day 99): 351 % of control
- T/C (T/C endpoint: mean survival time, dose: 50.0 mg/kg/injection, schedule: Q## X001 (ip), vehicle: carboxymethylcellulose (CMC), run until all animals had died): 498 % of control
- survivor count (T/C endpoint: mean survival time, dose: 62.0 mg/kg/injection, schedule: Q01DX Z (ip), vehicle: carboxymethylcellulose (CMC)): 9 of 10
- T/C (T/C endpoint: mean survival time, dose: 75.0 mg/kg/injection, schedule: Q01DX001 (ip), vehicle: carboxymethylcellulose (CMC), evaluated on day 45): 384 % of control
- T/C (T/C endpoint: mean survival time, dose: 75.0 mg/kg/injection, schedule: Q01DX001 (ip), vehicle: carboxymethylcellulose (CMC), evaluated on day 46): 127 % of control
- T/C (T/C endpoint: mean survival time, dose: 75.0 mg/kg/injection, schedule: Q01DX001 (ip), vehicle: carboxymethylcellulose (CMC), evaluated on day 60): 115, 200, 546 % of control
- T/C (T/C endpoint: mean survival time, dose: 75.0 mg/kg/injection, schedule: Q01DX001 (ip), vehicle: carboxymethylcellulose (CMC), run until all animals had died): 337 % of control
- survivor count (T/C endpoint: mean survival time, dose: 75.0 mg/kg/injection, schedule: Q01DX001 (ip), vehicle: clinical formulation): 0 of 6
- T/C (T/C endpoint: mean survival time, dose: 75.0 mg/kg/injection, schedule: Q01DX001 (ip), vehicle: saline, evaluated on day 30): 108 and 174 % of control
- T/C (T/C endpoint: mean survival time, dose: 75.0 mg/kg/injection, schedule: Q01DX001 (ip), vehicle: saline, run until all animals had died): 133 and 148 % of control
- T/C (T/C endpoint: mean survival time, dose: 75.0 mg/kg/injection, schedule: Q## X015 (ip), vehicle: carboxymethylcellulose (CMC)): 147 % of control
- survivor count (T/C endpoint: mean survival time, dose: 97.0 mg/kg/injection, schedule: Q01DX001 (oral), vehicle: carboxymethylcellulose (CMC)): 10 of 10
- T/C (T/C endpoint: mean survival time, dose: 100.0 mg/kg/injection, schedule: Q01DX001 (ip), vehicle: Klucel (hydroxypropylcellulose) (HPC), evaluated on day 30): 111 and 223 % of control
- T/C (T/C endpoint: mean survival time, dose: 100.0 mg/kg/injection, schedule: Q01DX001 (ip), vehicle: Klucel (hydroxypropylcellulose) (HPC), evaluated on day 60): 86 and 93 % of control
- survivor count (T/C endpoint: mean survival time, dose: 100.0 mg/kg/injection, schedule: Q01DX001 (ip), vehicle: carboxymethylcellulose (CMC)): 10 of 10
- survivor count (T/C endpoint: mean survival time, dose: 100.0 mg/kg/injection, schedule: Q01DX Z (ip), vehicle: carboxymethylcellulose (CMC)): 4 of 6
- survivor count (T/C endpoint: mean survival time, dose: 100.0 mg/kg/injection, schedule: Q04DX003 (ip), vehicle: carboxymethylcellulose (CMC)): 10 of 10
- survivor count (T/C endpoint: mean survival time, dose: 100.0 mg/kg/injection, schedule: Q07DX Z (ip), vehicle: carboxymethylcellulose (CMC)): 3 of 6
- T/C (T/C endpoint: mean survival time, dose: 112.0 mg/kg/injection, schedule: Q## X004 (ip), vehicle: carboxymethylcellulose (CMC)): 136 % of control
- survivor count (T/C endpoint: mean survival time, dose: 113.0 mg/kg/injection, schedule: Q01DX001 (ip), vehicle: carboxymethylcellulose (CMC)): 9 of 10
- survivor count (T/C endpoint: mean survival time, dose: 125.0 mg/kg/injection, schedule: Q01DX Z (ip), vehicle: carboxymethylcellulose (CMC)): 7 of 10
- T/C (T/C endpoint: mean survival time, dose: 144.0 mg/kg/injection, schedule: Q01DX001 (ip), vehicle: carboxymethylcellulose (CMC)): 141 % of control
- survivor count (T/C endpoint: mean survival time, dose: 150.0 mg/kg/injection, schedule: Q01DX001 (ip), vehicle: carboxymethylcellulose (CMC)): 10 of 10
- survivor count (T/C endpoint: mean survival time, dose: 150.0 mg/kg/injection, schedule: Q01DX Z (ip), vehicle: carboxymethylcellulose (CMC)): 2 of 6
- survivor count (T/C endpoint: mean survival time, dose: 168.0 mg/kg/injection, schedule: Q01DX001 (ip), vehicle: carboxymethylcellulose (CMC)): 10 of 10
- survivor count (T/C endpoint: mean survival time, dose: 200.0 mg/kg/injection, schedule: Q01DX001 (ip), vehicle: carboxymethylcellulose (CMC)): 8 of 10
- survivor count (T/C endpoint: mean survival time, dose: 200.0 mg/kg/injection, schedule: Q01DX Z (ip), vehicle: carboxymethylcellulose (CMC)): 0 of 6
- survivor count (T/C endpoint: mean survival time, dose: 200.0 mg/kg/injection, schedule: Q07DX Z (ip), vehicle: carboxymethylcellulose (CMC)): 0 of 6
- survivor count (T/C endpoint: mean survival time, dose: 225.0 mg/kg/injection, schedule: Q01DX001 (ip), vehicle: carboxymethylcellulose (CMC)): 10 of 10
- survivor count (T/C endpoint: mean survival time, dose: 288.0 mg/kg/injection, schedule: Q01DX001 (ip), vehicle: carboxymethylcellulose (CMC)): 8 of 10
- survivor count (T/C endpoint: mean survival time, dose: 400.0 mg/kg/injection, schedule: Q07DX Z (ip), vehicle: carboxymethylcellulose (CMC)): 0 of 6
- survivor count (T/C endpoint: mean survival time, dose: 800.0 mg/kg/injection, schedule: Q01DX001 (ip), vehicle: carboxymethylcellulose (CMC)): 0 of 6
- survivor count (T/C endpoint: mean survival time, dose: 800.0 mg/kg/injection, schedule: Q01DX001 (oral), vehicle: carboxymethylcellulose (CMC)): 2 of 6
- survivor count (T/C endpoint: mean survival time, dose: 800.0 mg/kg/injection, schedule: Q07DX Z (ip), vehicle: carboxymethylcellulose (CMC)): 0 of 6
- T/C (T/C endpoint: median survival time, dose: 12.5 mg/kg/injection, schedule: Q01DX001 (oral), vehicle: Klucel (hydroxypropylcellulose) (HPC)): 127 % of control
- T/C (T/C endpoint: median survival time, dose: 75.0 mg/kg/injection, schedule: Q01DX001 (oral), vehicle: Klucel (hydroxypropylcellulose) (HPC)): 147 % of control
- T/C (T/C endpoint: median survival time, dose: 100.0 mg/kg/injection, schedule: Q01DX001 (ip), vehicle: saline with Tween-80, evaluated on day 7): 129 % of control
- T/C (T/C endpoint: median survival time, dose: 100.0 mg/kg/injection, schedule: Q01DX001 (ip), vehicle: saline with Tween-80, evaluated on day 50): 125 % of control
- survivor count (T/C endpoint: median survival time, dose: 100.0 mg/kg/injection, schedule: Q01DX001 (ip), vehicle: steroid suspending solution): 7 of 8
